Reference: patent publication US6210917A, “Method for suppressing multiple drug resistance in cancer cells” (priority 1997, dated 2001)
At least one compound was matched to its structure with a doubt left.

Experiments:
Experiment in all cases: growth restoration by MTAse substrates after L-alanosine (FIG. 3)
Assay type in all cases: cell-based
[1] = system: MTAse competent A427 cells
[2] = system: MTAse competent MOLT-4 cells
[3] = system: MTAse deficient CEM cells
[4] = system: MTAse deficient A549 cells

CSC[C@H]1O[C@@H](n2cnc3c(N)ncnc32)[C@H](O)[C@@H]1O [MTA, methylthioadenosine]
growth restoration [1]: growth restoration
growth restoration curve with increasing MTA concentration ([2]; FIG. 3A): biphasic growth restoration curve
growth restoration ([2]; after L-alanosine): growth restoration
growth inhibition by high MTA concentrations ([2]; high concentrations): inhibited by high concentrations
growth restoration [3]: remained growth inhibited
growth restoration [4]: remained growth inhibited
